# Library screen at single concentrations

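Whole-parasite assay of Trypanosoma brucei over 72 hours; the read-out is not stated. Tested at 30 µM. Higher reads as stronger inhibition (inferred: compounds with an IC50 in retests scored well above the rest). Values scatter widely below zero; nearly all retest evidence comes from the higher of the two concentrations used. Size under these conditions: about 64,000 compounds, about 940 of them at 50% or above in at least one test.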

Each number is a percent effect as filed.
The controls that fix the scale are not given in the record; negative values are as filed.
Compounds were drawn at random from those tested, without regard to their results.

* CNc1cc(C2CN(C(=O)c3ccn(C)n3)CCO2)nc(C)n1 (stereo not drawn) : -84.88%
* COc1ccc(C)cc1CN1CCN(Cc2nccn2C)CC1 : -41.64%
* CN(C)C(=O)CC1CC2(CCN(Cc3ccco3)CC2)c2ccccc21.O=C(O)C(F)(F)F (stereo not drawn) : -30.19%
* CS(=O)(=O)N1CCc2ccc(C(=O)N3CCn4ncnc4C3)cc21 : 8.202%
* CC(C)CN(C(=O)Nc1cccnc1)C1CC1 : -2.145%
* Cc1nc(N(C)C)nc(NCCc2ccccn2)c1C : -8.885%
* [H][C@]1([C@H](O)c2ccc(NC(C)=O)cc2)COCC(=O)N1CC(C)C : 1.748%
* O=C(CSCC1CC1)N1CCCC(c2nccn2Cc2ccncc2)C1 (stereo not drawn) : -3.298%
* O=C(O)C(F)(F)F.[H][C@@]12CCN(Cc3ccco3)CC[C@]1([H])[C@H](COCC1CC1)CN(C)C2=O : -69.46%
* CN1CCC(Oc2ccc(NC(=O)c3ccccc3)cc2)CC1 : 4.391%
* CCc1nc(C)c([C@H]2CN(C)C[C@@H]2C(=O)Nc2ccc(OC)cc2)[nH]1 : -10.17%
* CN(Cc1nccn1C)CC1CCOc2ccccc2C1 (stereo not drawn) : -12.55%
* Cc1nn(C)cc1CN(C)Cc1cc2c(cc1OC(F)F)OCO2 : -14.96%
* Cc1cnc(C)c(N2CCCC(CO)(Cc3cccc(Cl)c3)C2)n1 (stereo not drawn) : -58.51%
* Cc1ccc(Cl)cc1NC(=O)Nc1c[nH]c(=O)[nH]c1=O : -0.1688%
* CC(C)NC(=O)N1CCC2(CCCO2)C1 (stereo not drawn) : -59.66%
* [H][C@]12CCN(C(=O)c3ccc4c(c3)CCC4)CC[C@]1([H])N(C(C)C)C(=O)CO2 : 2.825%
* c1ccc(-n2cc(CN3CCCC3Cn3cncn3)nn2)cc1 (stereo not drawn) : -18.06%
* COc1ccc(S(=O)(=O)NC(=O)C(C)OC)c(OC)c1 (stereo not drawn) : -2.782%
* [H][C@@]12CCN(S(=O)(=O)c3ccccc3F)C[C@]1(C(=O)NC)CCO2 : -26.88%
* CCC(O)Cn1nc(-c2ccc(C(=O)O)cc2)cc1-c1ccc(F)cc1 (stereo not drawn) : 4.444%
* COc1ccc(-c2cc3nn(CC(N)=O)c(=O)n3c(C)n2)cc1 : -54.2%
* CN1C[C@H](O)C[C@H]1c1nc(-c2ccc(OC(F)(F)F)cc2)no1 : -5.187%
* N#Cc1cccnc1NCc1cccc(C(=O)NCC2CCCCO2)c1 (stereo not drawn) : -23.78%
* C[C@]1(O)CN(Cc2ccc(C(=O)O)cc2)CC[C@@H]1Oc1cccc(F)c1 : 22.95%
* CO[C@H]1COCCN(Cc2c[nH]c3ccccc23)C1 : -13.56%
* COc1ccc(NC(=O)c2cnc(C3CCN(C(C)=O)C3)nc2C)cc1 (stereo not drawn) : -16.02%
* CC1CCCCN1S(=O)(=O)NCc1cccnc1OC1CCCC1 (stereo not drawn) : -0.05842%
* O=C(c1c[nH]c2ncccc12)N1CCC(COc2ccccc2)CC1 : -8.355%
* O=S(=O)(c1cc(F)cc(F)c1)N1CCC(Oc2ccc(Cl)cn2)CC1 : 15.29%
* CCCn1nnnc1CN(CC)CC1COc2ccccc2O1 (stereo not drawn) : -60.94%
* CCn1cnnc1CNc1nc(C)nc2scc(CC(C)C)c12 : -15.89%
* CC(NC(N)=O)C(=O)N(C)Cc1cccc(C(F)(F)F)c1 (stereo not drawn) : -94.26%
* Cn1ncc2c(N3CCN(C(N)=O)CC3)nc(C3CCCC3)nc21 : -21.24%
* c1ccc(OCCN2CCC(c3cnccn3)CC2)cc1 : -8.494%
* Nc1cc2c(nn1)CCN(C(=O)CC1CCCC1)C2 : -49.68%
* Brc1cnc(NCCCOCC2CCOC2)nc1 (stereo not drawn) : -88.34%
* F[C@@H]1CN(CC2CC2)C[C@@H]1OCc1nc2ccccc2[nH]1 : -27.99%
* Cn1cc2ncn(CCCOc3cccnc3)c(=O)c2n1 : 3.237%
* CSCC(CCO)NC(=O)Nc1cccc(Br)c1C (stereo not drawn) : -24.86%
* O=C(Cc1cnn(-c2ccccc2)n1)NC(C1CC1)C1CC1 : -18.47%
* [H][C@@]12CCCC[C@]1(O)CCN(Cc1cc(=O)n3c4c(cccc14)CCC3)C2 : 25.48%
* O=C(O)C(F)(F)F.O=C(O)C(F)(F)F.[H][C@@]12CCN(Cc3cccc(C#N)c3)C[C@]1([H])[C@@H](CN(C)C(C)C)OC2 : -62.73%
* N#Cc1cccc(N2CCOC3(CNCCOC3)C2)n1 (stereo not drawn) : -15.07%
* CCc1ccc(S(=O)(=O)Nc2c(C)cccc2C(=O)O)s1 : 30.06%

The first 3 entries again:

structure,effect
CNc1cc(C2CN(C(=O)c3ccn(C)n3)CCO2)nc(C)n1 (stereo not drawn),-84.88
COc1ccc(C)cc1CN1CCN(Cc2nccn2C)CC1,-41.64
CN(C)C(=O)CC1CC2(CCN(Cc3ccco3)CC2)c2ccccc21.O=C(O)C(F)(F)F (stereo not drawn),-30.19

Data taken from ChEMBL document CHEMBL3988442, “University of Dundee, Small-Polar-MMV Screening Library” (2021).